Source: PMC6534668
No constants are given. Whether binding was seen depends on the method and setting. Binding seen in cells or lysates may run through a third protein. Some binding calls cover weakened binding; strength is not graded here.

The chains behind the UniProt entries cited, without tags or fusion partners.
UniProt P24610: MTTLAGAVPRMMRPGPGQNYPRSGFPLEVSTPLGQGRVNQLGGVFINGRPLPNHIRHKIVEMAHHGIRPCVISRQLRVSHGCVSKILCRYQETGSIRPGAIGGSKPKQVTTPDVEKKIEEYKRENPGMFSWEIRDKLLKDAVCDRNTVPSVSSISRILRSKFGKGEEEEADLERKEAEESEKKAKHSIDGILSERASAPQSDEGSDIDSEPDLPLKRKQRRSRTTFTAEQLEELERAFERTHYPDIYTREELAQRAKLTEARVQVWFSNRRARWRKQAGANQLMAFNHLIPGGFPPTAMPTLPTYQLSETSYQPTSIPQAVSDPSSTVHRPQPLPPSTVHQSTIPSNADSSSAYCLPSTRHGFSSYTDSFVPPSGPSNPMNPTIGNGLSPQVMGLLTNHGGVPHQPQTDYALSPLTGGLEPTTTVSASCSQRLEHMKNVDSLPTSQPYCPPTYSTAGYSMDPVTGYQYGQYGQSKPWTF
UniProt Q91X20: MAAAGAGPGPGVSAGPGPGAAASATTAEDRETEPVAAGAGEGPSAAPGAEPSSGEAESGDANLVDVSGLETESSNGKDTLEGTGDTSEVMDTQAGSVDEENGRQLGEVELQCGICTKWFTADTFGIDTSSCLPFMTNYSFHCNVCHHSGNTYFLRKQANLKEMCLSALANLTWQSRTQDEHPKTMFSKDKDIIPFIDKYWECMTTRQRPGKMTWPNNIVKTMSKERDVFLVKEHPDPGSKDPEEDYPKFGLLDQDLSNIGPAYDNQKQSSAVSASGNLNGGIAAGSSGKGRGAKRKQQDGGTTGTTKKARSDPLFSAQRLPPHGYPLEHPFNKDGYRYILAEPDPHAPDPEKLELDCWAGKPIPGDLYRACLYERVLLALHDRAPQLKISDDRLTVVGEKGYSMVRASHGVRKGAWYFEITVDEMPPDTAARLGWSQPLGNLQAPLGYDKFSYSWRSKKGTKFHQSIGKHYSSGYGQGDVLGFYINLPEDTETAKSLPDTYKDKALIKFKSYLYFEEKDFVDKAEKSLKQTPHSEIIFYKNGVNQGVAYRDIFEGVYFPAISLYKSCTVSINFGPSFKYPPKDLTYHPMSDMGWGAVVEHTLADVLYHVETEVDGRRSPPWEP
UniProt P47239: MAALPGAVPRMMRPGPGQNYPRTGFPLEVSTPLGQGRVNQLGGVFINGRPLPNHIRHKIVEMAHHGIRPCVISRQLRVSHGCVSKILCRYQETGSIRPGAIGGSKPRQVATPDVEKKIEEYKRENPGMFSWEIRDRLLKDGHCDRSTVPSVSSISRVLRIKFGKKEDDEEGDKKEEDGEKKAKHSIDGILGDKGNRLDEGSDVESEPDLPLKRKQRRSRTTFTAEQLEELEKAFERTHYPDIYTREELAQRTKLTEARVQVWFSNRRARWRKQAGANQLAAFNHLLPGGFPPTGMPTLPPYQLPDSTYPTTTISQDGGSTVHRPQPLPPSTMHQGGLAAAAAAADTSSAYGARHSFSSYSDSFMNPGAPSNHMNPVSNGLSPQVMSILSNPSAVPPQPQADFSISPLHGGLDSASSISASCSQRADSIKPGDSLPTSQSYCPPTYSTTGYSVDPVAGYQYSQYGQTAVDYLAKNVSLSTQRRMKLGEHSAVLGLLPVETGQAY

B1: LIM-domain binding protein 1 (LDB1) (protein, UniProt P70662 1-411)
chain: MSVGCACPGCSSKSFKLYSPKEPPNGNAFPPFHPGTMLDRDVGPTPMYPPTYLEPGIGRHTPYGNQTDYRIFELNKRLQNWTEECDNLWWDAFTTEFFEDDAMLTITFCLEDGPKRYTIGRTLIPRYFRSIFEGGATELYYVLKHPKEAFHSNFVSLDCDQGSMVTQHGKPMFTQVCVEGRLYLEFMFDDMMRIKTWHFSIRQHRELIPRSILAMHAQDPQMLDQLSKNITRCGLSNSTLNYLRLCVILEPMQELMSRHKTYSLSPRDCLKTCLFQKWQRMVAPPAEPARQQPSKRRKRKMSGGSTMSSGGGNTNNSNSKKKSPASTFALSSQVPDVMVVGEPTLMGGEFGDEDERLITRLENTQFDAANGIDDEDSFNNSPALGANSPWNSKPPSSQESKSENPTSQASQ

Experiments:
[1] = target: T1, LIM-domain binding protein 1 (LDB1) (mouse (endogenous in mouse ES cell-derived EBs)) (UniProt P70662); assay: co-IP; immunoprecipitation with rabbit anti-LDB1 antibody and Protein A sepharose beads from nuclear extracts of iPax3 and iPax7 lines, western blot
T1 sequence: B1 chain

PAX3HaFlag = PAX3HaFlag (UniProt P24610); assay: co-IP; FLAG-IP of PAX3HaFlag from nuclear extracts of 1-day induced EBs, western blot of the partners

Molecule | binding [1] | binding (PAX3HaFlag)
ASH2L (from UniProt Q91X20 1-623) | binds | binds
PAX3 (from UniProt P24610 1-479) | binds | 
PAX7 (from UniProt P47239 1-503) | binds | 
B1 |  | binds
